These are yes or no findings as the source states them, for the method shown. Binding seen in cells or lysates may run through a third protein. These calls come from enrichment with a bait or labelling near it, and not all partners need be listed.
Molecular target: T1, ZFP36L1 (endogenous) (human (endogenous in primary T cells)) (UniProt Q07352)
T1 sequence: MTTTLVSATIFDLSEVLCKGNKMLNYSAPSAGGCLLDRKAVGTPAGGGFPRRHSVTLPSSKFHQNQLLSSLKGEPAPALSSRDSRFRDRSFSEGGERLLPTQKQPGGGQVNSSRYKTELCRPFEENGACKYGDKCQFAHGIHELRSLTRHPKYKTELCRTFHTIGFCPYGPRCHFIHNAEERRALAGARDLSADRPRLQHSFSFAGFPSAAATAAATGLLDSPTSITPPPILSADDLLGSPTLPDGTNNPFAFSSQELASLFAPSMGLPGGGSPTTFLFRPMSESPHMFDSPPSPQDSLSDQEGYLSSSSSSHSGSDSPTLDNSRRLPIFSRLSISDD
Assay: affinity purification with mass spectrometry

B1: Stau2 (protein, UniProt Q9NUL3 1-570)
chain: MANPKEKTAMCLVNELARFNRVQPQYKLLNERGPAHSKMFSVQLSLGEQTWESEGSSIKKAQQAVANKALTESTLPKPVQKPPKSNVNNNPGSITPTVELNGLAMKRGEPAIYRPLDPKPFPNYRANYNFRGMYNQRYHCPVPKIFYVQLTVGNNEFFGEGKTRQAARHNAAMKALQALQNEPIPERSPQNGESGKDVDDDKDANKSEISLVFEIALKRNMPVSFEVIKESGPPHMKSFVTRVSVGEFSAEGEGNSKKLSKKRAATTVLQELKKLPPLPVVEKPKLFFKKRPKTIVKAGPEYGQGMNPISRLAQIQQAKKEKEPDYVLLSERGMPRRREFVMQVKVGNEVATGTGPNKKIAKKNAAEAMLLQLGYKASTNLQDQLEKTGENKGWSGPKPGFPEPTNNTPKGILHLSPDVYQEMEASRHKVISGTTLGYLSPKDMNQPSSSFFSISPTSNSSATIARELLMNGTSSTAEAIGLKGSSPTPPCSPVQPSKQLEYLARIQGFQAALSALKQFSEQGLDPIDGAMNIEKGSLEKQAKHLREKADNNQAPPGSIAQDCKKSNSAV
B1 was tested, and the binding was “binds”.

B2: AIMP2 (protein, UniProt Q13155 1-320)
chain: MPMYQVKPYHGGGAPLRVELPTCMYRLPNVHGRSYGPAPGAGHVQEESNLSLQALESRQDDILKRLYELKAAVDGLSKMIQTPDADLDVTNIIQADEPTTLTTNALDLNSVLGKDYGALKDIVINANPASPPLSLLVLHRLLCEHFRVLSTVHTHSSVKSVPENLLKCFGEQNKKQPRQDYQLGFTLIWKNVPKTQMKFSIQTMCPIEGEGNIARFLFSLFGQKHNAVNATLIDSWVDIAIFQLKEGSSKEKAAVFRSMNSALGKSPWLAGNELTVADVVLWSVLQQIGGCSVTVPANVQRWMRSCENLAPFNTALKLLK
With B2 the binding was “binds”.

B3: FAM120A (protein, UniProt Q9NZB2 1-1118)
chain: MGVQGFQDYIEKHCPSAVVPVELQKLARGSLVGGGRQRPPQTPLRLLVDADNCLHRLYGGFYTDWVSGGQWNHMLGYLAALAKACFGGNIELFVFFNGALEKARLHEWVKRQGNERQTAQQIVSHVQNKGTPPPKVWFLPPVCMAHCIRLALIRFHVKVAQSIEDHHQEVIGFCRENGFHGLVAYDSDYALCNIPYYFSAHALKLSRNGKSLTTSQYLMHEVAKQLDLNPNRFPIFAALLGNHILPDEDLASFHWSLLGPEHPLASLKVRAHQLVLPPCDVVIKAVADYVRNIQDTSDLDAIAKDVFQHSQSRTDDKVIRFKRAIGYYSATSKPMSFHPPHYLAARPGPFGMPGMVPPHVPPQMLNIPQTSLQAKPVAPQVPSPGGAPGQGPYPYSLSEPAPLTLDTSGKNLTEQNSYSNIPHEGKHTPLYERSSPINPAQSGSPNHVDSAYFPGSSTSSSSDNDEGSGGATNHISGNKIGWEKTGSHSEPQARGDPGDQTKAEGSSTASSGSQLAEGKGSQMGTVQPIPCLLSMPTRNHMDITTPPLPPVAPEVLRVAEHRHKKGLMYPYIFHVLTKGEIKIAVSIEDEANKDLPPAALLYRPVRQYVYGVLFSLAESRKKTERLAFRKNRLPPEFSPVIIKEWAAYKGKSPQTPELVEALAFREWTCPNLKRLWLGKAVEDKNRRMRAFLACMRSDTPAMLNPANVPTHLMVLCCVLRYMVQWPGARILRRQELDAFLAQALSPKLYEPDQLQELKIENLDPRGIQLSALFMSGVDMALFANDACGQPIPWEHCCPWMYFDGKLFQSKLLKASREKTPLIDLCDGQADQAAKVEKMRQSVLEGLSFSRQSHTLPFPPPPALPFYPASAYPRHFGPVPPSQGRGRGFAGVCGFGGPYGETVATGPYRAFRVAAASGHCGAFSGSDSSRTSKSQGGVQPIPSQGGKLEIAGTVVGHWAGSRRGRGGRGPFPLQVVSVGGPARGRPRGVISTPVIRTFGRGGRYYGRGYKNQAAIQGRPPYAASAEEVAKELKSKSGESKSSAMSSDGSLAENGVMAEEKPAPQMNGSTGDARAPSHSESALNNDSKTCNTNPHLNALSTDSACRREAALEAAVLNKEE
B3 was tested, and the binding was “binds”.

B4: HAUS3 (protein, UniProt Q68CZ6 1-603)
chain: MSCGNEFVETLKKIGYPKADNLNGEDFDWLFEGVEDESFLKWFCGNVNEQNVLSERELEAFSILQKSGKPILEGAALDEALKTCKTSDLKTPRLDDKELEKLEDEVQTLLKLKNLKIQRRNKCQLMASVTSHKSLRLNAKEEEATKKLKQSQGILNAMITKISNELQALTDEVTQLMMFFRHSNLGQGTNPLVFLSQFSLEKYLSQEEQSTAALTLYTKKQFFQGIHEVVESSNEDNFQLLDIQTPSICDNQEILEERRLEMARLQLAYICAQHQLIHLKASNSSMKSSIKWAEESLHSLTSKAVDKENLDAKISSLTSEIMKLEKEVTQIKDRSLPAVVRENAQLLNMPVVKGDFDLQIAKQDYYTARQELVLNQLIKQKASFELLQLSYEIELRKHRDIYRQLENLVQELSQSNMMLYKQLEMLTDPSVSQQINPRNTIDTKDYSTHRLYQVLEGENKKKELFLTHGNLEEVAEKLKQNISLVQDQLAVSAQEHSFFLSKRNKDVDMLCDTLYQGGNQLLLSDQELTEQFHKVESQLNKLNHLLTDILADVKTKRKTLANNKLHQMEREFYVYFLKDEDYLKDIVENLETQSKIKAVSLED
For B4, the binding was “binds”.

B5: RBM27 (protein, UniProt Q9P2N5 1-1060)
chain: MLIEDVDALKSWLAKLLEPICDADPSALANYVVALVKKDKPEKELKAFCADQLDVFLQKETSGFVDKLFESLYTKNYLPLLEPVKPEPKPLVQEKEEIKEEVFQEPAEEERDGRKKKYPSPQKTRSESSERRTREKKREDGKWRDYDRYYERNELYREKYDWRRGRSKSRSKSRGLSRSRSRSRGRSKDRDPNRNVEHRERSKFKSERNDLESSYVPVSAPPPNSSEQYSSGAQSIPSTVTVIAPAHHSENTTESWSNYYNNHSSSNSFGRNLPPKRRCRDYDERGFCVLGDLCQFDHGNDPLVVDEVALPSMIPFPPPPPGLPPPPPPGMLMPPMPGPGPGPGPGPGPGPGPGPGPGHSMRLPVPQGHGQPPPSVVLPIPRPPITQSSLINSRDQPGTSAVPNLASVGTRLPPPLPQNLLYTVSERQPMYSREHGAAASERLQLGTPPPLLAARLVPPRNLMGSSIGYHTSVSSPTPLVPDTYEPDGYNPEAPSITSSGRSQYRQFFSRTQTQRPNLIGLTSGDMDVNPRAANIVIQTEPPVPVSINSNITRVVLEPDSRKRAMSGLEGPLTKKPWLGKQGNNNQNKPGFLRKNQYTNTKLEVKKIPQELNNITKLNEHFSKFGTIVNIQVAFKGDPEAALIQYLTNEEARKAISSTEAVLNNRFIRVLWHRENNEQPTLQSSAQLLLQQQQTLSHLSQQHHHLPQHLHQQQVLVAQSAPSTVHGGIQKMMSKPQTSGAYVLNKVPVKHRLGHAGGNQSDASHLLNQSGGAGEDCQIFSTPGHPKMIYSSSNLKTPSKLCSGSKSHDVQEVLKKKQEAMKLQQDMRKKRQEVLEKQIECQKMLISKLEKNKNMKPEERANIMKTLKELGEKISQLKDELKTSSAVSTPSKVKTKTEAQKELLDTELDLHKRLSSGEDTTELRKKLSQLQVEAARLGILPVGRGKTMSSQGRGRGRGRGGRGRGSLNHMVVDHRPKALTVGGFIEEEKEDLLQHFSTANQGPKFKDRRLQISWHKPKVPSISTETEEEEVKEEETETSDLFLPDDDDEDEDEYESRSWRR
B5 was tested, and the binding was “binds”.

B6: HAUS5 (protein, UniProt O94927 1-633)
chain: MELAQEARELGCWAVEEMGVPVAARAPESTLRRLCLGQGADIWAYILQHVHSQRTVKKIRGNLLWYGHQDSPQVRRKLELEAAVTRLRAEIQELDQSLELMERDTEAQDTAMEQARQHTQDTQRRALLLRAQAGAMRRQQHTLRDPMQRLQNQLRRLQDMERKAKVDVTFGSLTSAALGLEPVVLRDVRTACTLRAQFLQNLLLPQAKRGSLPTPHDDHFGTSYQQWLSSVETLLTNHPPGHVLAALEHLAAEREAEIRSLCSGDGLGDTEISRPQAPDQSDSSQTLPSMVHLIQEGWRTVGVLVSQRSTLLKERQVLTQRLQGLVEEVERRVLGSSERQVLILGLRRCCLWTELKALHDQSQELQDAAGHRQLLLRELQAKQQRILHWRQLVEETQEQVRLLIKGNSASKTRLCRSPGEVLALVQRKVVPTFEAVAPQSRELLRCLEEEVRHLPHILLGTLLRHRPGELKPLPTVLPSIHQLHPASPRGSSFIALSHKLGLPPGKASELLLPAAASLRQDLLLLQDQRSLWCWDLLHMKTSLPPGLPTQELLQIQASQEKQQKENLGQALKRLEKLLKQALERIPELQGIVGDWWEQPGQAALSEELCQGLSLPQWRLRWVQAQGALQKLCS
With B6 the binding was “binds”.

B7: WDR11 (protein, UniProt Q9BZH6 1-1224)
chain: MLPYTVNFKVSARTLTGALNAHNKAAVDWGWQGLIAYGCHSLVVVIDSITAQTLQVLEKHKADVVKVKWARENYHHNIGSPYCLRLASADVNGKIIVWDVAAGVAQCEIQEHAKPIQDVQWLWNQDASRDLLLAIHPPNYIVLWNADTGTKLWKKSYADNILSFSFDPFDPSHLTLLTSEGIVFISDFSPSKPPSGPGKKVYISSPHSSPAHNKLATATGAKKALNKVKILITQEKPSAEFITLNDCLQLAYLPSKRNHMLLLYPREILILDLEVNQTVGVIAIERTGVPFLQVIPCFQRDGLFCLHENGCITLRVRRSYNNIFTTSNEEPDPDPVQELTYDLRSQCDAIRVTKTVRPFSMVCCPVNENAAALVVSDGRVMIWELKSAVCNRNSRNSSSGVSPLYSPVSFCGIPVGVLQNKLPDLSLDNMIGQSAIAGEEHPRGSILREVHLKFLLTGLLSGLPAPQFAIRMCPPLTTKNIKMYQPLLAVGTSNGSVLVYHLTSGLLHKELSIHSCEVKGIEWTSLTSFLSFATSTPNNMGLVRNELQLVDLPTGRSIAFRGERGNDESAIEMIKVSHLKQYLAVVFRDKPLELWDVRTCTLLREMSKNFPTITALEWSPSHNLKSLRKKQLATREAMARQTVVSDTELSIVESSVISLLQEAESKSELSQNISAREHFVFTDIDGQVYHLTVEGNSVKDSARIPPDGSMGSITCIAWKGDTLVLGDMDGNLNFWDLKGRVSRGIPTHRSWVRKIRFAPGKGNQKLIAMYNDGAEVWDTKEVQMVSSLRSGRNVTFRILDVDWCTSDKVILASDDGCIRVLEMSMKSACFRMDEQELTEPVWCPYLLVPRASLALKAFLLHQPWNGQYSLDISHVDYPENEEIKNLLQEQLNSLSNDIKKLLLDPEFTLLQRCLLVSRLYGDESELHFWTVAAHYLHSLSQEKSASTTAPKEAAPRDKLSNPLDICYDVLCENAYFQKFQLERVNLQEVKRSTYDHTRKCTDQLLLLGQTDRAVQLLLETSADNQHYYCDSLKACLVTTVTSSGPSQSTIKLVATNMIANGKLAEGVQLLCLIDKAADACRYLQTYGEWNRAAWLAKVRLNPEECADVLRRWVDHLCSPQVNQKSKALLVLLSLGCFFSVAETLHSMRYFDRAALFVEACLKYGAFEVTEDTEKLITAIYADYARSLKNLGFKQGAVLFASKAGAAGKDLLNELESPKEEPIEE
In the case of B7, the binding is reported as “binds”.

From publication doi:10.1101/2025.07.25.666749
